Source: PubChem BioAssay AID588590 (National Center for Advancing Translational Sciences (NCATS), 2011)
Several values for one entry are separate records, joined by “and”; a condition that tells them apart may be missing. Identical values can stand only once. About 4,000 (1%) of roughly 390,000 compounds were called active. Inconclusive results, whose numbers are uncertain, are shown with a selection of clear calls. Calls come from the whole dose curve; as a rule, active = well fitted inhibition curve with a large enough effect; inconclusive = small, poorly fitted or top-dose-only effect, or another doubt; inactive = no such curve, though single readings can be large or run the other way. Where the call is inconclusive, the potency comes from a doubtful curve fit.

Protein sequences, listed by entry. Tags and fused reporters are not part of them. Lines headed by an entry give the natural chain unless they say otherwise; changes in a name come on top.
UniProt Q9UNA4: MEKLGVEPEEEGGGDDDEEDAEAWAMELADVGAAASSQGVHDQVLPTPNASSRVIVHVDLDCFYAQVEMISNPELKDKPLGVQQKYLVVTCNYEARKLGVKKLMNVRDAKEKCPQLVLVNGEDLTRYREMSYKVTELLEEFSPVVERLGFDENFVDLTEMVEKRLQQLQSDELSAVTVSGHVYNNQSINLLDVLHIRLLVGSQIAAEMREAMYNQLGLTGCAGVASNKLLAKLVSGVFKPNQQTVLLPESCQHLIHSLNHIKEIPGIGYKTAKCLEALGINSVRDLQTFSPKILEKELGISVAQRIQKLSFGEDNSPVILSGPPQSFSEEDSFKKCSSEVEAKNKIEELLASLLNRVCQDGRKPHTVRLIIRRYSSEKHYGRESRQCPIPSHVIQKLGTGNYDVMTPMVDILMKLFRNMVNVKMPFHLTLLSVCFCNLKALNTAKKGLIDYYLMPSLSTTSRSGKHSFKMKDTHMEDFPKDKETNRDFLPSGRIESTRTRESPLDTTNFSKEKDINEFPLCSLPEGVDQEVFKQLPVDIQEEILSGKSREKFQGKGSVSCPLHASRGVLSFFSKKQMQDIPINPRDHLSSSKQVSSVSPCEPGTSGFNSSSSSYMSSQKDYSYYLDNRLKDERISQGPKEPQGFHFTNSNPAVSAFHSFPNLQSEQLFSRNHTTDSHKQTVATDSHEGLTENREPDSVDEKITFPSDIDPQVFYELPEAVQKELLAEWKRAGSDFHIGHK

Each compound was assayed against DNA polymerase iota (Homo sapiens) (UniProt Q9UNA4) (assay: qHTS for Inhibitors of Polymerase Iota). Conditions: Pol iota fluorescent replication assay, 10 min; series mostly up to 115 µM; activity, negative = inhibition: at the top concentration.
Summary of the method: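 Pol iota at 10 nM preincubated 15 min with compounds at room temperature; reaction started with fluorescent substrate, 50 nM final. Fluorescence read kinetically at 0 and 10 min; buffer-only wells as negative control.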
Potency is the fitted concentration of half-maximal effect.

| Structure (SMILES) | activity, negative = inhibition | Potency |
| --- | --- | --- |
| CCOc1cc(/C=C(\CC(=O)O)c2nc3ccccc3s2)ccc1OC | inactive: 106% |  |
| Cc1cc(C)cc(NC(=O)CCS(=O)(=O)c2cccc3nsnc23)c1 | inactive: 11.6% |  |
| O=C(Nc1ccc(-n2nncc2-c2ccco2)cc1)c1cccc(F)c1 |  | inconclusive: 44.7 µM [inhibitor, partial curve, poor fit] |
| O=C(CSc1ccc(-c2ccco2)nn1)c1ccccc1 |  | active: 50.1 µM |
| CC1CCN(S(=O)(=O)c2ccc(C(=O)Nc3nnc(-c4ccccn4)o3)cc2)CC1 |  | inconclusive: 89.1 µM [inhibitor, single point] |
| Oc1cccc(/C=N/Nc2ccc(Cl)nn2)c1O |  | inconclusive: 70.8 µM [inhibitor, single point] |
| CCc1ccc(S(=O)(=O)N(C(=O)c2ccncc2)c2ccc3oc(C)c(C(=O)OC)c3c2)cc1 |  | inconclusive: 89.1 µM [inhibitor, partial curve, poor fit] |
| O=C(NNC(=O)c1cc2cc3ccccc3nc2s1)c1cccc(Cl)c1 |  | inconclusive: 50.1 µM [inhibitor, partial curve, poor fit] |
| Cc1cccc(C)c1Nc1nn2c(=O)c3cc4c(cc3nc2s1)OCO4 | inactive: -16.9% |  |
| CCN(CC)C(CNC(=O)CSc1nnnn1-c1cccc(F)c1)c1ccco1 (stereo not drawn) |  | inconclusive: 10 µM [inhibitor, partial curve, poor fit] |
| CCn1cc(C(=O)NCc2ccco2)c(=O)c2cc(S(=O)(=O)N3CCc4ccccc4C3)ccc21 |  | inconclusive: 25.1 µM [inhibitor, full curve, poor fit] |
| CC(=O)c1ccc(NS(=O)(=O)c2cccc(S(=O)(=O)c3ccc(Cl)cc3)c2)cc1 |  | active: 89.1 µM |
| Cc1sc(NC(=O)/C=C/c2ccco2)c(C(=O)O)c1C |  | inconclusive: 31.6 µM [inhibitor, full curve] |
| CC(=O)Nc1ccc(S(=O)(=O)NC2Cc3ccccc3C2)cc1 |  | inconclusive: 31.6 µM [inhibitor, partial curve] |
| CCCC(=O)Nc1ccccc1OCc1cc(=O)n2cc(C)ccc2n1 | inactive: -8.09% |  |
| O=C(Cn1cnc2sc3c(c2c1=O)CCCC3)NCC(=O)Nc1c(F)cccc1F | inactive: -8.95% |  |
| Cc1ccc(NS(=O)(=O)c2c(C)[nH]c(=O)[nH]c2=O)c(Br)c1 |  | inconclusive: 79.4 µM [inhibitor, partial curve, poor fit] |
| C[C@H](NC(=O)c1nc[nH]c1C(=O)NC1CCNCC1)C(=O)OC(C)(C)C |  | inconclusive: 39.8 µM [inhibitor, single point] |
| Cc1nn(-c2ccccc2)c(OC(=O)c2cccs2)c1S(=O)(=O)c1ccccc1 |  | inconclusive: 79.4 µM [inhibitor, partial curve] |
| O=C(O)c1cccc(N/N=C/c2ccc(F)c(F)c2)c1 | inactive: 110% |  |
| O=C(CCn1cccc1)NCc1ccc2c(c1)OCO2 |  | inconclusive: 100 µM [inhibitor, partial curve, poor fit] |

| Structure (SMILES) | activity, negative = inhibition | Potency |
| --- | --- | --- |
| N#Cc1cccc(CN2CCC(=O)N([C@H](CO)Cc3ccccc3)CC2)c1 |  | inconclusive: 89.1 µM [inhibitor, single point] |
| CCOC(=O)c1ccc(NC(=O)CSc2nc3sc(C(=O)O)c(C)c3c(=O)[nH]2)cc1 | inactive: 8.82% |  |
| COc1ccc(S(=O)(=O)N/N=C(/C)c2ccncc2)c(OC)c1 | inactive: 32.3% |  |
| NC1CCN(c2nc3c(cc2F)c(=O)c(C(=O)O)cn3-c2ccc(F)cc2F)C1 (stereo not drawn) |  | inconclusive: 79.4 µM [inhibitor, single point] and inconclusive: 25.1 µM [inhibitor, full curve, poor fit] |
| COc1cc(OC)cc(C(=O)NNC(=O)Cc2cccs2)c1 |  | inconclusive: 31.6 µM [inhibitor, full curve] |
| Cc1cc(NS(=O)(=O)c2ccc(NC(=O)CCSc3ccc(F)cc3)cc2)nc(C)n1 |  | inconclusive: 89.1 µM [inhibitor, single point] |
| Cc1ccc(C(=O)Nc2ccc(C(=O)N/N=C/c3cccnc3)cc2)cc1 |  | active: 79.4 µM |
| Cc1c(Cl)cccc1NC(=O)c1ccc2c(c1)CCN2S(=O)(=O)c1ccccc1 | inactive: -4.66% |  |
| CCN1/C(=C/C(C)=C/c2sc3ccccc3[n+]2CC)Sc2ccccc21 |  | active: 31.6 µM |
| O=C(Nc1ccc(S(=O)(=O)N2CCOCC2)cc1)C1COc2ccccc2O1 (stereo not drawn) |  | inconclusive: 35.5 µM [inhibitor, single point] |
| O=C(O)CC1S/C(=N/N=C/c2ccc(-c3ccccc3[N+](=O)[O-])o2)NC1=O (stereo not drawn) |  | inconclusive: 17.8 µM [inhibitor, partial curve, poor fit] |
| CSc1ccc(/C=C/C(=O)c2ccc(NC(C)=O)cc2)cc1 |  | inconclusive: 39.8 µM [inhibitor, partial curve, poor fit] |
| Cc1nnc(NC(=O)c2ccco2)s1 |  | inconclusive: 17.8 µM [inhibitor, single point] |
| COc1ccc(C(=O)CSc2ccc(-c3ccc(C)cc3)nn2)cc1 |  | inconclusive: 79.4 µM [inhibitor, partial curve] |
| Cc1cc(C)c(NC(=O)c2ccc3nccnc3c2)c(C)c1 |  | inconclusive: 20 µM [inhibitor, partial curve, poor fit] |
| Cc1cccc(NC(=O)NNC(=O)c2ccc3ccccc3c2)c1 |  | inconclusive: 79.4 µM [inhibitor, partial curve] |
| COC(=O)c1cc2sccc2n1Cc1nc(-c2ccc(OC)cc2)oc1C |  | inconclusive: 39.8 µM [inhibitor, partial curve, poor fit] |
| C=CCNC(=S)Nc1nc2c(cc1C(=O)OCC)COC(C)(C)C2 |  | inconclusive: 3.16 µM [inhibitor, partial curve, poor fit] |
| C/C(=C/CCC(C)[C@H]1CC[C@@]2(C)C3=C(CC[C@]12C)[C@@]1(C)CCC(=O)C(C)(C)[C@@H]1CC3)C(=O)O (stereo partly drawn) | inactive: -26.1% |  |
| CCCCN(C(=O)CCC(=O)Nc1cc(C)on1)C(C(=O)NC1CCCC1)c1cccc(OC)c1 (stereo not drawn) |  | inconclusive: 100 µM [inhibitor, single point] |
| C#CCOCCOCCOCCNc1nc(N2CCN(C(=O)[C@H](CCCCN)n3cc(CN)nn3)CC2)nc(N2CCN(C(=O)[C@H](CCC(=O)O)n3cc([C@@H](N)CCSC)nn3)CC2)n1 |  | inconclusive: 0.891 µM [inhibitor, full curve, poor fit] |

| Structure (SMILES) | activity, negative = inhibition | Potency |
| --- | --- | --- |
| Cc1ccc2sc(C)[n+](CCO)c2c1 |  | inconclusive: 31.6 µM [inhibitor, single point] |
| COc1ccc(-c2csc(NC(=O)CSc3nc(C)nc4sc(C(=O)O)c(C)c34)n2)cc1 |  | inconclusive: 25.1 µM [inhibitor, partial curve, poor fit] |
| COC(=O)N1CCN(/[N+]([O-])=N/Oc2ccc([N+](=O)[O-])cc2[N+](=O)[O-])CC1 |  | inconclusive: 17.8 µM [inhibitor, full curve] |
| c1ccc(Nc2nc3ccccc3o2)cc1 | inactive: -1.74% [at 58.9 µM] |  |
| CCc1ccc(-n2nc(C)c3c(C)cc(=O)n(CC(=O)Nc4ccc(C(C)=O)cc4)c32)cc1 | inactive: -3.06% |  |
| Cc1cc(/C=N/NC(=O)c2cccc(F)c2)c(C)n1-c1ccccc1 |  | inconclusive: 56.2 µM [inhibitor, partial curve, poor fit] |
| CSc1ccc(CCNC(=O)C2CCCN(c3nn4c(=O)cc(C)nc4s3)C2)cc1 (stereo not drawn) |  | inconclusive: 79.4 µM [inhibitor, partial curve, poor fit] |
| COc1cc(/C=C2/CCC/C(=C\c3cc(O)c(OC)c(Cl)c3)C2=O)cc(Cl)c1O |  | inconclusive: 14.1 µM [inhibitor, partial curve, poor fit] |
| Cc1ccc(C(=O)OCC(=O)c2c[nH]c3ccccc23)cc1S(=O)(=O)N1CCOCC1 |  | inconclusive: 79.4 µM [inhibitor, partial curve, poor fit] |
| CCn1c(NC(=O)/C=C/c2ccc(F)cc2)nc2ccccc21 |  | inconclusive: 100 µM [inhibitor, single point] |
| Cc1[nH][nH]c(=O)c1C(c1ccc(-c2ccc(C(=O)O)cc2)o1)c1c(C)[nH][nH]c1=O |  | active: 4.47 µM |
| COc1cccc(CN(C)C(=O)c2cc(S(=O)(=O)N3CCCC3)ccc2C)c1OC |  | inconclusive: 25.1 µM [inhibitor, partial curve] |
| COc1ccc(NC(=O)CSc2nc(SC)ns2)cc1 | inactive: 7.5% |  |
| COc1cc([C@@H]2OC[C@@H]3[C@H]2CO[C@@H]3c2ccc3c(c2)OCO3)ccc1O | inactive: -1.06% |  |
| CC1C(=O)C(C)(C)C(=O)OC1c1ccccc1 (stereo not drawn) |  | inconclusive: 22.4 µM [inhibitor, partial curve] |
| Cc1nn(C(=O)c2ccc(Cl)cc2)c(C)c1S(=O)(=O)N1CCCCCC1 |  | inconclusive: 89.1 µM [inhibitor, single point] |
| COc1cc(NS(=O)(=O)c2ccc(NC(=S)NC(=O)c3ccccc3)cc2)nc(OC)n1 |  | inconclusive: 89.1 µM [inhibitor, partial curve, poor fit] |
| Cc1ccc(NC(=O)c2cc3c([nH]c2=O)CC(C)(C)CC3=O)cc1 |  | inconclusive: 100 µM [inhibitor, single point] |
| CCOc1ccc(OCC(=O)OCC(=O)N2CCN(C(=O)c3ccco3)CC2)cc1 |  | inconclusive: 79.4 µM [inhibitor, partial curve] |
| O=C(Nc1ccc(NC(=O)c2sc3ccccc3c2Cl)cc1Cl)c1ccco1 |  | inconclusive: 35.5 µM [inhibitor, partial curve, poor fit] |
| CC(C)c1cc(C(=O)NCc2ccco2)no1 |  | inconclusive: 56.2 µM [inhibitor, partial curve, poor fit] |
